Our source for the survivor count and T/C values is PubChem BioAssay AID248 (DTP/NCI, 2004).

This experiment relates to L1210 leukemia ip in BDF1 mice, survival T/C. In words: NCI In Vivo Anticancer Drug Screen. Data for tumor model L1210 Leukemia (intraperitoneal) in B6D2F1 (BDF1) mice. To be noted: T/C endpoint: mean survival time, higher T/C = longer survival.
Where [1] appears, read: dose: 50.0 mg/kg/injection, schedule: Q01DX009 (ip), vehicle: saline.
Where [2] appears, read: dose: 100.0 mg/kg/injection, schedule: Q01DX009 (ip), vehicle: saline.
[3] abbreviates: dose: 400.0 mg/kg/injection, schedule: Q04DX003 (ip), vehicle: saline.
The mark [4] stands for this setting: dose: 400.0 mg/kg/injection, schedule: Q01DX009 (ip), vehicle: Klucel (hydroxypropylcellulose) (HPC).
[5] abbreviates: dose: 100.0 mg/kg/injection, schedule: Q04DX003 (ip), vehicle: saline with Tween-80.
The mark [6] stands for this setting: dose: 200.0 mg/kg/injection, schedule: Q04DX003 (ip), vehicle: saline with Tween-80.
Setting [7] is: dose: 400.0 mg/kg/injection, schedule: Q04DX003 (ip), vehicle: saline with Tween-80.
The mark [8] stands for this setting: dose: 100.0 mg/kg/injection, schedule: Q01DX005 (ip), vehicle: saline.
The mark [9] stands for this setting: dose: 200.0 mg/kg/injection, schedule: Q01DX005 (ip), vehicle: saline.
[10] abbreviates: dose: 25.0 mg/kg/injection, schedule: Q04DX003 (ip), vehicle: saline.

The list does not hold the whole screen: it is rich in T/C values a quarter to a half above the control, in often repeated tests (any T/C) and in doses without a T/C. Further doses and runs are listed elsewhere. T/C: endpoint of the treated group in % of that of the vehicle group. Some entries give survivors of the animals treated and no T/C: the source files T/C as zero there, which appears to mark a toxic dose or a test without result, not a measured value. Some survivor counts are full or nearly so, which does not show that the dose was tolerated: survival well below the control is almost never listed, so the zero probably covers shortened survival too. Survivors were counted at the toxicity check, usually on the fifth day, unless a day is given; later deaths do not show. Schedules are NCI's codes, read here as Q, the interval in days (D) or hours (H), X, the number of doses. Some doses were run more than once; the results are listed from low to high. Some schedules carry Z or #; the key to these is not given. For survival time, this PubChem deposit counts one and a half times the control or more as active, and values a quarter to a half above the control carry no call in these data; other NCI protocols may use other cut-offs. Some T/C values are followed by the survivors on the day toxicity was checked, most often the fifth; where none is given, no animal had died by that day.

Take `CC(C)(C)C#C/C(=N\Nc1ccc([N+](=O)[O-])cc1[N+](=O)[O-])c1ccccc1`: under “dose: 200.0 mg/kg/injection, schedule: Q04DX002 (ip), vehicle: saline with Tween-80”, the survivor count is recorded as 3 of 3.

For the compound `c1ccc2c(c1)NCCN2`, the survivor count runs as follows: (dose: 50.0 mg/kg/injection, schedule: Q01DX001 (ip), vehicle: saline) 0 of 3; (dose: 100.0 mg/kg/injection, schedule: Q01DX001 (ip), vehicle: saline with Tween-80) 0 of 3; (dose: 200.0 mg/kg/injection, schedule: Q01DX001 (ip), vehicle: saline with Tween-80) 0 of 3; (dose: 400.0 mg/kg/injection, schedule: Q01DX001 (ip), vehicle: saline with Tween-80) 0 of 3.

`CCc1nc2ccccc2c(=O)n1-c1ccc(Cl)cc1`: under “dose: 200.0 mg/kg/injection, schedule: Q01DX009 (ip), vehicle: saline with Tween-80”, the survivor count is on record as 0 of 3.

On to `CCCCCC[Si](Cl)(Cl)Cl`, for which the survivor count (dose: 300.0 mg/kg/injection, schedule: Q01DX001 (ip), vehicle: saline) was 3 of 6.

As for `COC(=O)CC1(O)C=CC(=O)C=C1`, the survivor count under setting [1] is reported as 2 of 4 and the survivor count under setting [2] was 0 of 4.

On to `CCOP(=O)(NC1C2CCC(C2)C1C)OCC` (stereo unspecified), for which the survivor count (dose: 100.0 mg/kg/injection, schedule: Q01DX001 (ip), vehicle: saline) was 0 of 6.

As for `O=[N+]([O-])c1cc(Cl)ccc1S(=O)(=O)CC(Cl)c1ccccc1` (stereo unspecified), the survivor count (dose: 100.0 mg/kg/injection, schedule: Q01DX009 (ip), vehicle: acetone) was 6 of 6.

For the compound `CN(C)CCCN1c2ccccc2Sc2c(Cl)cc(Cl)cc21`, the survivor count under setting [2] is reported as 1 of 6; the survivor count (dose: 200.0 mg/kg/injection, schedule: Q04DX003 (ip), vehicle: saline) is given as 1 of 4; the survivor count under setting [3] was 0 of 4.

As to `COc1ccc(OC)c(-c2csc(=O)s2)c1`, the T/C (dose: 200.0 mg/kg/injection, schedule: Q04DX002 (ip), vehicle: Klucel (hydroxypropylcellulose) (HPC)) is 141 % of control.

Consider `CC#CC#Cc1cccc(=O)o1`, for which the survivor count was 2 of 6 (dose: 150.0 mg/kg/injection, schedule: Q04DX003 (ip), vehicle: Klucel (hydroxypropylcellulose) (HPC)); 2 of 6 (dose: 225.0 mg/kg/injection, schedule: Q04DX003 (ip), vehicle: Klucel (hydroxypropylcellulose) (HPC)); 0 of 6 (dose: 335.0 mg/kg/injection, schedule: Q04DX003 (ip), vehicle: Klucel (hydroxypropylcellulose) (HPC)).

In the case of `O=C(Nc1cccc([N+](=O)[O-])c1)Nc1ccccc1F`, the survivor count is, setting by setting: (dose: 100.0 mg/kg/injection, schedule: Q01DX009 (ip), vehicle: Klucel (hydroxypropylcellulose) (HPC)) 6 of 6; (dose: 200.0 mg/kg/injection, schedule: Q01DX009 (ip), vehicle: Klucel (hydroxypropylcellulose) (HPC)) 6 of 6; under setting [4], 6 of 6.

In the case of `CCOc1c(Cl)cc(Cl)cc1C(c1ccccc1S(=O)(=O)O)c1cc(Cl)cc(Cl)c1OCC`, the survivor count by setting is: under setting [5], 1 of 6; under setting [6], 0 of 6; under setting [7], 0 of 6.

As to `Cc1c([N+](=O)[O-])cc(C(C)(C)C)c(OC(=O)C(Cl)(Cl)Cl)c1[N+](=O)[O-]`, the survivor count (dose: 400.0 mg/kg/injection, schedule: Q04DX002 (ip), vehicle: Klucel (hydroxypropylcellulose) (HPC)) is reported as 3 of 3.

Regarding `CC1N=C(c2ccc(NC(=O)c3ccc(C(=O)Nc4ccc(C5=NC(C)C(C)N5)cc4)cc3)cc2)NC1C` (stereo unspecified), the T/C is 142 % of control (dose: 1.5 mg/kg/injection, schedule: Q01DX Z (ip), vehicle: water); 148 % of control (dose: 2.0 mg/kg/injection, schedule: Q01DX015 (ip), vehicle: water); 144 % of control [5 of 6 alive] (dose: 3.0 mg/kg/injection, schedule: Q01DX Z (ip), vehicle: water); 125 % of control (dose: 4.0 mg/kg/injection, schedule: Q01DX015 (ip), vehicle: water). Besides, the survivor count reads like this: (dose: 6.0 mg/kg/injection, schedule: Q01DX015 (ip), vehicle: water) 0 of 6; (dose: 6.0 mg/kg/injection, schedule: Q01DX Z (ip), vehicle: water) 2 of 6; (dose: 8.0 mg/kg/injection, schedule: Q01DX015 (ip), vehicle: water) 0 of 6.

For the compound `S=P(c1ccccc1)(N1CCCCC1)N1CCCCC1`, under setting [3], the survivor count was 6 of 6.

On to `C[N+]1(Cc2c[nH]c3ccsc23)CCCCC1`, for which the survivor count is on record as 1 of 6 (dose: 25.0 mg/kg/injection, schedule: Q04DX003 (ip), vehicle: saline with Tween-80); 0 of 6 (dose: 50.0 mg/kg/injection, schedule: Q04DX003 (ip), vehicle: saline with Tween-80); 1 of 6 under setting [5]; 0 of 6 under setting [6]; 0 of 6 under setting [7].

As for `C[Se]c1ncnc2c1c(C#N)cn2C1OC(CO)C(O)C1O` (stereo unspecified), the T/C (dose: 25.0 mg/kg/injection, schedule: Q01DX005 (ip), vehicle: saline) is 129 % of control. Further, the survivor count runs as follows: under setting [8], 0 of 6; under setting [9], 0 of 6.

With `N#CCCC(CCC#N)c1cccc(C(CCC#N)CCC#N)n1`, the survivor count is, setting by setting: (dose: 200.0 mg/kg/injection, schedule: Q04DX003 (ip), vehicle: Klucel (hydroxypropylcellulose) (HPC)) 6 of 6; (dose: 400.0 mg/kg/injection, schedule: Q04DX003 (ip), vehicle: Klucel (hydroxypropylcellulose) (HPC)) 6 of 6.

`CC(=O)Nc1ccc(NC(=O)Nc2ccccc2C(F)(F)F)cc1`: the survivor count (dose: 400.0 mg/kg/injection, schedule: Q04DX002 (ip), vehicle: carboxymethylcellulose (CMC)) was 3 of 3.

For `CCC(=O)Nc1ccc(C)cc1C`, the survivor count under setting [4] is 2 of 6.

For the compound `Cc1ncc(CO)c2c1OC1=CCCCC1=C2`, the survivor count (dose: 400.0 mg/kg/injection, schedule: Q04DX002 (ip), vehicle: saline with Tween-80) is 0 of 3.

Take `Cc1ccccc1/C=N/Nc1nnc(N/N=C/c2ccccc2C)c2ccccc12`: for the setting “dose: 50.0 mg/kg/injection, schedule: Q01DX001 (ip), vehicle: carboxymethylcellulose (CMC)”, the survivor count is 2 of 4.

Consider `OCC1OC(Nc2ncnc3c2ncn3C2OC(CO)C(O)C2O)C(O)C1O` (stereo unspecified), for which the survivor count is, setting by setting: under setting [1], 0 of 6; under setting [8], 0 of 6; under setting [9], 0 of 6.

For `O=C1C(F)=C(N2CC2)C(=O)C(N2CCOCC2)=C1N1CC1`, where the note is “dose: 6.0 mg/kg/injection, schedule: Q01DX009 (ip), vehicle: saline”, the T/C is 129 % of control. Moreover, the survivor count was 1 of 6 and 3 of 6 (dose: 12.5 mg/kg/injection, schedule: Q04DX003 (ip), vehicle: saline); 1 of 6 (dose: 25.0 mg/kg/injection, schedule: Q01DX001 (ip), vehicle: saline); 0 of 6 under setting [10].

Regarding `CN(C)c1ccc(/C(=N\O)C(=O)O)cc1`, the survivor count (dose: 400.0 mg/kg/injection, schedule: Q01DX001 (ip), vehicle: saline) was 0 of 4.

With `CN(C)C(=O)NNC(=O)c1ccc(Cl)cc1`, under setting [7], the survivor count is listed as 1 of 6.

With `O=C1C(N2CCCC2)=C(N2CC2)C(=O)C(N2CCCC2)=C1N1CC1`, the survivor count is recorded as 6 of 6 (dose: 1.0 mg/kg/injection, schedule: Q01DX001 (ip), vehicle: saline) and 0 of 6 under setting [10]. Also, the T/C is, setting by setting: (dose: 3.12 mg/kg/injection, schedule: Q04DX003 (ip), vehicle: saline) 126 % of control; (dose: 6.25 mg/kg/injection, schedule: Q04DX003 (ip), vehicle: saline) 143 % of control.

For the compound `CC/C(=N/Nc1ccc([N+](=O)[O-])cc1[N+](=O)[O-])c1cccs1`, for the setting “dose: 400.0 mg/kg/injection, schedule: Q01DX001 (ip), vehicle: carboxymethylcellulose (CMC)”, the survivor count is reported as 3 of 4.
